Measurements as given in the supplement of paper PMC8728848.
This is one part of the list.

What was measured:
Assay in all cases: glycan array binding signal (z-score within array); higher = stronger binding
Conditions in all cases: glycan notation: IUPAC condensed, linker removed
[1] = target: Fuc(a1-2)[Gal(a1-3)]Gal(b1-4)GlcNAc(b1-2)Man(a1-3)[Fuc(a1-2)[Gal(a1-3)]Gal(b1-4)GlcNAc(b1-2)Man(a1-6)]Man(b1-4)GlcNAc(b1-4)GlcNAc
Summary of the method: (§1)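 Columns mapping to the same glycan were averaged after glycan names were converted to IUPAC-condensed notation. The data come from 3228 arrays in the Consortium for Functional Glycomics database, limited to those with an available protein sequence. Binding is reported as a within-array Z-score averaged across arrays of one protein sequence and across linkers.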

[2] = target: Fuc(a1-2)[Gal(a1-3)]Gal(b1-4)GlcNAc(b1-2)Man(a1-3)[Fuc(a1-2)[Gal(a1-3)]Gal(b1-4)GlcNAc(b1-2)Man(a1-6)]Man(b1-4)GlcNAc(b1-4)[Fuc(a1-6)]GlcNAc
Summary of the method: as §1

[3] = target: Fuc(a1-2)[Gal(a1-3)]Gal(b1-4)GlcNAc(b1-3)GalNAc
Summary of the method: as §1

[4] = target: Fuc(a1-2)[Gal(a1-3)]Gal(b1-4)GlcNAc(b1-3)[Fuc(a1-2)[Gal(a1-3)]Gal(b1-4)GlcNAc(b1-6)]GalNAc
Summary of the method: as §1

[5] = target: Fuc(a1-2)[Gal(a1-3)]Gal(b1-4)GlcNAc(b1-6)GalNAc
Summary of the method: as §1

[6] = target: Fuc(a1-2)[Gal(a1-3)]Gal(b1-4)[Fuc(a1-3)]Glc
Summary of the method: as §1

[7] = target: Fuc(a1-2)[Gal(a1-3)]Gal(b1-4)[Fuc(a1-3)]GlcNAc
Summary of the method: as §1

[8] = target: Fuc(a1-2)[Gal(a1-3)]Gal(b1-4)[Fuc(a1-3)]GlcNAc(b1-3)GalNAc
Summary of the method: as §1

[9] = target: Fuc(a1-2)[Gal(a1-4)]Gal(b1-4)GlcNAc
Summary of the method: as §1

[10] = target: Fuc(a1-2)[GalNAc(a1-3)]Gal
Summary of the method: as §1

[11] = target: Fuc(a1-2)[GalNAc(a1-3)]Gal(b1-3)GalNAc(a1-3)[Fuc(a1-2)]Gal(b1-4)GlcNAc
Summary of the method: as §1

[12] = target: Fuc(a1-2)[GalNAc(a1-3)]Gal(b1-3)GalNAc(b1-3)Gal(a1-4)Gal(b1-4)Glc
Summary of the method: as §1

[13] = target: Fuc(a1-2)[GalNAc(a1-3)]Gal(b1-3)GlcNAc
Summary of the method: as §1

[14] = target: Fuc(a1-2)[GalNAc(a1-3)]Gal(b1-3)GlcNAc(b1-2)Man(a1-3)[Fuc(a1-2)[GalNAc(a1-3)]Gal(b1-3)GlcNAc(b1-2)Man(a1-6)]Man(b1-4)GlcNAc(b1-4)GlcNAc
Summary of the method: as §1

[15] = target: Fuc(a1-2)[GalNAc(a1-3)]Gal(b1-3)GlcNAc(b1-2)Man(a1-3)[Fuc(a1-2)[GalNAc(a1-3)]Gal(b1-3)GlcNAc(b1-2)Man(a1-6)]Man(b1-4)GlcNAc(b1-4)[Fuc(a1-6)]GlcNAc
Summary of the method: as §1

[16] = target: Fuc(a1-2)[GalNAc(a1-3)]Gal(b1-3)GlcNAc(b1-3)GalNAc
Summary of the method: as §1

[17] = target: Fuc(a1-2)[GalNAc(a1-3)]Gal(b1-3)GlcNAc(b1-6)GalNAc
Summary of the method: as §1

[18] = target: Fuc(a1-2)[GalNAc(a1-3)]Gal(b1-4)Glc
Summary of the method: as §1

[19] = target: Fuc(a1-2)[GalNAc(a1-3)]Gal(b1-4)GlcNAc
Summary of the method: as §1

[20] = target: Fuc(a1-2)[GalNAc(a1-3)]Gal(b1-4)GlcNAc(b1-2)Man
Summary of the method: as §1

[21] = target: Fuc(a1-2)[GalNAc(a1-3)]Gal(b1-4)GlcNAc(b1-2)Man(a1-3)[Fuc(a1-2)[GalNAc(a1-3)]Gal(b1-4)GlcNAc(b1-2)Man(a1-6)]Man(b1-4)GlcNAc(b1-4)GlcNAc
Summary of the method: as §1

[22] = target: Fuc(a1-2)[GalNAc(a1-3)]Gal(b1-4)GlcNAc(b1-2)Man(a1-3)[Fuc(a1-2)[GalNAc(a1-3)]Gal(b1-4)GlcNAc(b1-2)Man(a1-6)]Man(b1-4)GlcNAc(b1-4)[Fuc(a1-6)]GlcNAc
Summary of the method: as §1

[23] = target: Fuc(a1-2)[GalNAc(a1-3)]Gal(b1-4)GlcNAc(b1-3)Gal(b1-4)GlcNAc
Summary of the method: as §1

[24] = target: Fuc(a1-2)[GalNAc(a1-3)]Gal(b1-4)GlcNAc(b1-3)Gal(b1-4)GlcNAc(b1-3)Gal(b1-4)GlcNAc
Summary of the method: as §1

[25] = target: Fuc(a1-2)[GalNAc(a1-3)]Gal(b1-4)GlcNAc(b1-3)GalNAc
Summary of the method: as §1

[26] = target: Fuc(a1-2)[GalNAc(a1-3)]Gal(b1-4)GlcNAc(b1-3)[Fuc(a1-2)[GalNAc(a1-3)]Gal(b1-4)GlcNAc(b1-6)]GalNAc
Summary of the method: as §1

[27] = target: Fuc(a1-2)[GalNAc(a1-3)]Gal(b1-4)GlcNAc(b1-6)GalNAc
Summary of the method: as §1

[28] = target: Fuc(a1-2)[GalNAc(a1-3)]Gal(b1-4)[Fuc(a1-3)]GlcNAc
Summary of the method: as §1

[29] = target: Fuc(a1-2)[GalNAc(a1-3)]Gal(b1-4)[Fuc(a1-3)]GlcNAc(b1-3)GalNAc
Summary of the method: as §1

[30] = target: Fuc(a1-2)[GalNAc(a1-4)]Gal(b1-4)GlcNAc
Summary of the method: as §1

[31] = target: Fuc(a1-2)[GalNAc(b1-3)]Gal
Summary of the method: as §1

Fuc(a1-3)GlcNAc = target: Fuc(a1-3)GlcNAc
Summary of the method: as §1

[32] = target: Fuc(a1-3)[Gal(b1-4)]Glc6S
Summary of the method: as §1

[33] = target: Fuc(a1-3)[Gal(b1-4)]GlcNAc
Summary of the method: as §1

[34] = target: Fuc(a1-3)[Gal(b1-4)]GlcNAc(b1-2)Man
Summary of the method: as §1

[35] = target: Fuc(a1-3)[Gal(b1-4)]GlcNAc(b1-2)Man(a1-3)[Fuc(a1-3)[Gal(b1-4)]GlcNAc(b1-2)Man(a1-6)]Man(b1-4)GlcNAc(b1-4)GlcNAc
Summary of the method: as §1

[36] = target: Fuc(a1-3)[Gal(b1-4)]GlcNAc(b1-2)Man(a1-3)[Fuc(a1-3)[Gal(b1-4)]GlcNAc(b1-2)Man(a1-6)]Man(b1-4)GlcNAc(b1-4)[Fuc(a1-6)]GlcNAc
Summary of the method: as §1

B1: Clec12b (Mus musculus), Q149M0 (protein)
chain: MSDEVTYATLMLQDSARVRGNQDGNNLRKEGHPAQSSLWRGAALSLMTLCLVLVTGLVTLATMFLQVSNDINSDSEKLSQLQKSIHPQQDNLSESLNSSRKSLTEESLQSQISALLERQEQMATKLCKEFLIHASDHKCNPCPKTWQWYGNSCYYFSINEEKSWSDSRKDCIDKNATLVKIDSTEERDLLQSQLSLTFSFFWLGLSWNSSGRNWLWEDGSFPPPTLFSDKELASFNGSRDCAYFERGNIYASRCSAEIPWICEKTASLVKTEDLD
- glycan array binding signal (z-score) [1]: 0.853
- glycan array binding signal (z-score) [2]: -0.426
- glycan array binding signal (z-score) [3]: -0.152
- glycan array binding signal (z-score) [4]: 0.043
- glycan array binding signal (z-score) [5]: -0.431
- glycan array binding signal (z-score) [6]: 0.143
- glycan array binding signal (z-score) [7]: -0.445
- glycan array binding signal (z-score) [8]: -0.422
- glycan array binding signal (z-score) [9]: -0.083
- glycan array binding signal (z-score) [10]: 0.118
- glycan array binding signal (z-score) [11]: -0.495
- glycan array binding signal (z-score) [12]: -0.72
- glycan array binding signal (z-score) [13]: -0.355
- glycan array binding signal (z-score) [14]: 0.014
- glycan array binding signal (z-score) [15]: -0.336
- glycan array binding signal (z-score) [16]: -0.397
- glycan array binding signal (z-score) [17]: 4.57
- glycan array binding signal (z-score) [18]: -0.43
- glycan array binding signal (z-score) [19]: 0.126
- glycan array binding signal (z-score) [20]: -0.043
- glycan array binding signal (z-score) [21]: -0.37
- glycan array binding signal (z-score) [22]: -0.026
- glycan array binding signal (z-score) [23]: -0.749
- glycan array binding signal (z-score) [24]: -0.115
- glycan array binding signal (z-score) [25]: -0.118
- glycan array binding signal (z-score) [26]: -0.622
- glycan array binding signal (z-score) [27]: 0.308
- glycan array binding signal (z-score) [28]: -0.288
- glycan array binding signal (z-score) [29]: 1.59
- glycan array binding signal (z-score) [30]: -0.386
- glycan array binding signal (z-score) [31]: 1.39
- glycan array binding signal (z-score) (Fuc(a1-3)GlcNAc): -0.323
- glycan array binding signal (z-score) [32]: 0.716
- glycan array binding signal (z-score) [33]: -0.034
- glycan array binding signal (z-score) [34]: -0.713
- glycan array binding signal (z-score) [35]: 0.32
- glycan array binding signal (z-score) [36]: 0.501
